From paper PMC7179242 come the findings set out here.

The chains behind the UniProt entries cited, without tags or fusion partners. Where a name states a change or a piece, a line headed by the entry shows the natural chain unless it says otherwise.
UniProt P33442: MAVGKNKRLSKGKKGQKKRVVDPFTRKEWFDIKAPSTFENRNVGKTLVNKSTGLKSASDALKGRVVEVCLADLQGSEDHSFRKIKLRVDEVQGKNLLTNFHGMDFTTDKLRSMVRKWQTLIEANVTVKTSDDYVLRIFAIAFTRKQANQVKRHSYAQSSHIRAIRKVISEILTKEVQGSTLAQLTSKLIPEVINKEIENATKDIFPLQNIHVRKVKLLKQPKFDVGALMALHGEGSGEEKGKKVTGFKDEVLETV

The assay concerns the target T1, Tsr1-FPZ (S. cerevisiae) (UniProt Q07381).
T1 sequence (chain, phosphorylated on T354 or S358 (100% of the peptide)): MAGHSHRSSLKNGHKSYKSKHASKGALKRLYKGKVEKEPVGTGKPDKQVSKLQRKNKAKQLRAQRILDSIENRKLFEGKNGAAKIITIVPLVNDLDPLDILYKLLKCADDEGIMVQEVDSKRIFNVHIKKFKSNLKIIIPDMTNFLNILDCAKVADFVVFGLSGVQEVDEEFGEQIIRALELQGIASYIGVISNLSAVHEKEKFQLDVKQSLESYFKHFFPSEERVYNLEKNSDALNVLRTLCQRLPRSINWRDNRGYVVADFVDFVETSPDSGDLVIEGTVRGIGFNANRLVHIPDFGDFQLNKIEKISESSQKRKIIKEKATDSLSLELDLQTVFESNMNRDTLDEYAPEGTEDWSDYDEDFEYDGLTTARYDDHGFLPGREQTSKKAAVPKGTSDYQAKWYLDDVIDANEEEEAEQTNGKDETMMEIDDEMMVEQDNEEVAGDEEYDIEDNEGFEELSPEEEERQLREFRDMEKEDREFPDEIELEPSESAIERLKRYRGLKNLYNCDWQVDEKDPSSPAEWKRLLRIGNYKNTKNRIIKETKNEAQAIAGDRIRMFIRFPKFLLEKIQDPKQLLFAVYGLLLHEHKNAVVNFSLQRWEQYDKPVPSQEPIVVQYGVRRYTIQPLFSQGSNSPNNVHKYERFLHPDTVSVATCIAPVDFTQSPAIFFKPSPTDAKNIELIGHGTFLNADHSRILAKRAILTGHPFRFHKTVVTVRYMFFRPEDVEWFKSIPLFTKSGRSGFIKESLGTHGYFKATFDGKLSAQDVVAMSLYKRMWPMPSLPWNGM
Kind of assay: cryo-EM structure; single particle analysis of Tsr1-FPZ pre-40S particles (ribonucleoprotein, purified from yeast by the bait Tsr1); consensus 3.1 Å, global classes GC1-GC3, focused classes H1-H3 (head) and P1-P3 (platform).

Results are given in words; binding and its absence hold for the method and conditions named. Binding can be weak; no strength is given.

On to “Rps29 (S. cerevisiae (endogenous in BY4742))”, for which the binding result is “binds”.

Rps1 (from UniProt P33442): the binding entry is reported as “binds”.
